These are yes or no findings as the source states them, for the method shown. For some of these results: In cells and extracts the contact can be indirect. Some results given as binding are weak or reduced against the parent protein; the word gives no strength. For some of these results: Tags and fused reporters may be left off the sequences shown.

Amino acid sequences for entries named in this document (tags omitted).
UniProt P49841: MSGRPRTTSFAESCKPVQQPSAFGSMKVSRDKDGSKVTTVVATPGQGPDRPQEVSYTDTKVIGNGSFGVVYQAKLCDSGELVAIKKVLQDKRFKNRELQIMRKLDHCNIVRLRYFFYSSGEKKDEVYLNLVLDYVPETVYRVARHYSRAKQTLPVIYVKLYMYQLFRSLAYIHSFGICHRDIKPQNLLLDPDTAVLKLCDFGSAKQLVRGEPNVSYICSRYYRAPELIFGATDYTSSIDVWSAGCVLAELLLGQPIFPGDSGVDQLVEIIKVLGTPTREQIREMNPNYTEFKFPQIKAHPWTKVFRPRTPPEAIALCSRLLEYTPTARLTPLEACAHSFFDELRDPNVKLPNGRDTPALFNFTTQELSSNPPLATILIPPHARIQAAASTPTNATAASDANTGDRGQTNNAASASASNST
UniProt P04198: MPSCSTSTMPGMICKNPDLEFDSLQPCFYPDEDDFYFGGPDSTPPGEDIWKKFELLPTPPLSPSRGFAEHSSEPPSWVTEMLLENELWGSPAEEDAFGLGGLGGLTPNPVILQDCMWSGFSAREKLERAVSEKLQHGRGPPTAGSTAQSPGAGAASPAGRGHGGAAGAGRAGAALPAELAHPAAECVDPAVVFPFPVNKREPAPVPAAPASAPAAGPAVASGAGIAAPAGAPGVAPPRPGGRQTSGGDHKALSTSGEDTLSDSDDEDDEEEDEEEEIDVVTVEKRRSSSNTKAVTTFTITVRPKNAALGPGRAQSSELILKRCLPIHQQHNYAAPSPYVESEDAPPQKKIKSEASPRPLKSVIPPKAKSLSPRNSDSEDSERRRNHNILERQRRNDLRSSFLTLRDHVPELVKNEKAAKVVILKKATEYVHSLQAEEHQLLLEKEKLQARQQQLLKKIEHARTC

Assay [1] addresses GSK3β (endogenous, CHP134 cells) (human (endogenous in CHP134)) (UniProt P49841). Briefly: co-IP; whole lysates of CHP134 cells, endogenous proteins; pre-cleared, primary antibody overnight at 4°C, protein G-Sepharose; lysis buffer 50 mM Tris-HCl pH 8.0, 137 mM NaCl, 2.7 mM KCl, 1% Triton X; immunoblotting.
Assay [2] concerns the target MYCN protein (endogenous, CHP134 cells) (human (endogenous in CHP134)) (UniProt P04198). Described as above.
In assay [3] the target is GST-fused GSK3β (Promega) (UniProt P49841). Briefly: pull-down; 0.5 µg purified NCYM with 0.5 µg GST-fused protein, 2 h at 4°C; recovered on glutathione-sepharose beads; binding buffer 50 mM Tris-HCl pH 8.0, 1 mM EDTA, 150 mM NaCl, 0.1% Nonidet P-40; immunoblotting; both purified.
Assay [4] addresses GST-fused MYCN (Abnova) (UniProt P04198). Described as above.

B1: NCYM protein (endogenous, CHP134 cells) (protein, UniProt P40205 1-109)
chain: MQHPPCEPGNCLSLKEKKITEGSGGVCWGGETDASNPAPALTACCAAEREANVEQGLAGRLLLCNYERRVVRRCKIAGRGRAPLGTRPLDVSSFKLKEEGRPPCLKINK
Consider B1, for which the binding entry in assay [1] and in assay [2] was “binds” each time.

B2: purified full-length NCYM protein (from GST-NCYM, GST cleaved by thrombin) (protein, UniProt P40205 1-109)
chain: B1 chain
Take B2: the binding entry in assay [3] and in assay [4] was “binds” throughout.

The record behind these values is paper PMC3879166.
